Results as given in patent publication US7262003B2, “Plant test procedure to detect natural, semi-synthetic, synthetic compounds and physical stress factors through expression of distinct responses” (Council of Scientific and Industrial Research, priority 1998, dated 2007).
Some results were stated once for a whole list of compounds, not compound by compound.

Test system: Bacopa monnieri twigs
Assay: Cytotoxic/weedicidal effect: menthol in medium and Mentha arvensis oil sprayed on twigs
Format: in vivo
Conditions: menthol added to the medium and oil sprayed on the twigs
Experimental: We also planned the experiments to determine if this procedure can depict a clear cut manifestation of cytotoxic/weedicidal effect of compounds. For this purpose we used a known essential oil of Mentha arvensis, which is rich in the toxic but useful component, menthol as the treatment. The procedure involved was same as in the above examples with the exception that menthol was added to the medium and oil was sprayed on these twigs which were inoculated into the medium. […] Refer to FIG. #4 of Sheet #2.

## CC1CCC(C(C)C)C(O)C1 (stereo not shown) [menthol]
  Time to complete loss of chlorophyll in the lower leaves: ≤ 3 days
